This assay can be described thus: qHTS Assay to Find Inhibitors of Chronic Active B-Cell Receptor Signaling. The conditions noted are these: ABC-DLBCL IkBa-CBG/CBR reporter, luminescence ratio (green luciferase fused to IkBa over red control in TMD8 lymphoma cells), 4 h. In outline: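 Cell line TMD8 (human ABC DLBCL), stably expressing tet-inducible CBG68-IkBa fusion and CBR; IMDM/0.5% FBS; cpd up to 46 uM; dox induction, 4 h, 37C/5% CO2; dual luminescence; green/red ratio; MG132 control.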

[1] abbreviates: measured here: CBR red luminescence, cell number.

The other results are listed elsewhere or left out. The main result of the screen is listed elsewhere. These columns were measured beside it and carry no call. Most of these compounds were active or inconclusive in the main read-out, so they are no random draw. The note in brackets gives the kind of curve behind each potency; many fits are weak.

As usually defined, the AC50 is the midpoint of the concentration-response curve, whichever way the signal moves. Take `Cc1ccc(C(=O)NC(Cc2c[nH]c3ccccc23)C(=O)O)o1` (stereo not given): the AC50 under setting [1] was 23.1 µM [falling, single point].

For the compound `Cc1occc1C(=O)N/N=C/C=C/c1ccccc1`, under setting [1], the AC50 was 22.4 µM [falling, partial curve, poor fit].

Regarding `COC(=O)N1C(=O)[C@@](c2ccccc2)(C2CCCC2)N1C(=O)OC`, the AC50 under setting [1] is 8.91 µM [falling, partial curve, poor fit].

Consider `Cc1ccc(NC(=O)CCCc2ccccc2)c([N+](=O)[O-])c1`, for which the AC50 under setting [1] was 22.4 µM [rising, partial curve].

Take `O=C(Cn1ncc2c3ccccc3n(Cc3ccccc3F)c2c1=O)NCCCN1CCCC1=O`: the AC50 under setting [1] is 11.2 µM [falling, partial curve, poor fit].

Regarding `C/C(=N\OC(=O)c1ccc(F)cc1)c1ccc(F)c(F)c1`, the AC50 under setting [1] is 35.5 µM [rising, single point].

Take `Cn1cnnc1SCc1ccccc1Br`: the AC50 under setting [1] was 20.6 µM [rising, single point].

Take `CC(C)CN(C(=O)C1CC1)C1CCS(=O)(=O)C1` (stereo not given): under setting [1], the AC50 is 20.6 µM [rising, single point].

For `O=c1cnnc(SCCc2ccccc2)[nH]1`, under setting [1], the AC50 was 16.4 µM [falling, partial curve].

For the compound `CC1(C(=O)Nc2nc3ccccc3s2)CC1(Br)Br` (stereo not given), the AC50 under setting [1] was 0.112 µM [falling, full curve, poor fit].

In the case of `CC1C(=O)N2CCCc3cc(NS(=O)(=O)c4ccc(F)cc4)cc1c32` (stereo not given), the AC50 under setting [1] is 20.6 µM [falling, single point].

For the compound `CCC(C)NC(=O)C1CCN(S(=O)(=O)c2cccnc2)CC1` (stereo not given), under setting [1], the AC50 is 16.4 µM [falling, partial curve].

In the case of `CCCn1nnc(NC(=O)c2ccc(Br)cc2)n1`, under setting [1], the AC50 was 10.3 µM [falling, partial curve, poor fit].

For `CN(Cc1ccccc1)Cc1nc2c(c(=O)n(C)c(=O)n2C)n1Cc1ccc(F)cc1`, the half-maximal activity concentration (AC50) under setting [1] is 11.2 µM [falling, partial curve].

`COc1cnc(-c2ccccc2)nc1Oc1cccc(C)c1C`: under setting [1], the AC50 is 5.01 µM [falling, partial curve, poor fit].

Turning to `CC1(C#CC[N+]2(C)CCCCC2)CCC2C(O1)c1ccccc1OC2(C)C` (stereo not given), the AC50 under setting [1] was 7.94 µM [rising, partial curve, poor fit].

Consider `CCN1CCN(C(=O)Cn2ncc3c([nH]c4ccccc43)c2=O)CC1`, for which the concentration at half-maximal activity (AC50) under setting [1] is 12.6 µM [rising, single point].

For the compound `O=C(NCCC1CCCCN1S(=O)(=O)c1ccccc1)C(=O)Nc1ccc(F)cc1` (stereo not given), the concentration at half-maximal activity (AC50) under setting [1] was 2.59 µM [falling, partial curve].

For `COc1ccc(-c2cc(C)nc(SCc3cccc(C(=O)O)c3)n2)cc1`, the AC50 under setting [1] is 1.64 µM [falling, partial curve, poor fit].

For `O=C(Nc1ccc(CN2CCOCC2)cc1)c1ccc(-c2ccc(Cl)cc2Cl)o1`, the AC50 under setting [1] is 15.8 µM [falling, single point].

For `COc1ccc(CCN(C)C(=O)C(CCSC)NC(=O)c2ccco2)cc1OC` (stereo not given), the AC50 under setting [1] is 25.9 µM [rising, single point].

With `O=C(CNCCc1ccc(Cl)cc1)Nc1ccc(C(=O)N2CCCCC2)cc1`, under setting [1], the AC50 is 17.8 µM [falling, partial curve, poor fit].

With `CC(O/N=C/c1ccccc1OC(F)F)C(=O)Nc1cccc(S(=O)(=O)N2CCOCC2)c1` (stereo not given), the AC50 under setting [1] was 18.4 µM [rising, partial curve, poor fit].

Regarding `O=C(CC1SC(=NCc2ccccc2)NC1=O)Nc1ccccc1` (stereo not given), the AC50 under setting [1] was 20.6 µM [falling, single point].

Take `CCCCN(CCCC)CC(O)CN(c1cc([N+](=O)[O-])ccc1OC)S(=O)(=O)c1ccccc1` (stereo not given): under setting [1], the AC50 was 29.1 µM [falling, single point].

Turning to `CN(C)c1nc(C(=O)NN)nc(N(C)C)n1`, the AC50 under setting [1] is 0.58 µM [rising, partial curve, poor fit].

Take `CC(C)c1c(C(=O)N/N=C/c2ccsc2)nnn1-c1nonc1N`: the AC50 under setting [1] is 12.6 µM [rising, partial curve].

For `CCCn1nnc(NC(=O)c2cc(Br)cc(Br)c2OC)n1`, under setting [1], the AC50 was 5.01 µM [rising, full curve, poor fit].

Turning to `COc1cccc(NC(=O)CN(c2ccc(C)cc2)S(=O)(=O)c2c(C)nn(C)c2C)c1`, under setting [1], the AC50 was 0.562 µM [falling, full curve].

For `CCCCn1c(SCC(=O)Nc2cc(C(F)(F)F)ccc2Cl)nnc1C(CC)N(C)C` (stereo not given), the AC50 under setting [1] was 23.1 µM [falling, single point].

Take `CCOc1cc(Br)c(C(=O)O)cc1OC`: the AC50 under setting [1] is 2.91 µM [rising, single point].

On to `S=c1nccc(-c2ccc3c(c2)CCO3)[nH]1`, for which the AC50 under setting [1] was 35.5 µM [rising, single point].

As to `CC(C)CC(NC(=O)CCC(=O)OCC(=O)[C@@]1(O)CCC2[C@@H]3CCC4=CC(=O)C=C[C@]4(C)C3[C@@H](O)C[C@@]21C)C(=O)O` (stereo not given in full), under setting [1], the AC50 is 35.5 µM [rising, single point].

Regarding `CCC(=O)N(C)CCc1cc2c(c(OC)c1/C=N/Nc1ccc(C(=O)O)cc1)OCO2`, the AC50 under setting [1] is 7.94 µM [falling, partial curve].

In the case of `Cc1cc(=O)[nH]c2c3ccccc3nn12`, under setting [1], the AC50 is 6.31 µM [falling, partial curve].

As to `O=C(Nc1ccc(N2CCN(Cc3ccccc3)CC2)cc1)c1ccco1`, under setting [1], the AC50 was 35.5 µM [rising, single point].

As to `Cc1c(C2(O)CCCCC2)[nH]c2cnccc12`, the AC50 under setting [1] is 8.2 µM [falling, partial curve, poor fit].

Take `O=C(c1sc2ccccc2c1Cl)N1CCN(CCc2ccccn2)CC1`: the AC50 under setting [1] was 11.2 µM [falling, single point].

Turning to `c1ccc(-c2cc(NCCN3CCCCC3)c3ccccc3n2)cc1`, under setting [1], the AC50 is 31.6 µM [falling, partial curve, poor fit].

As to `Cc1ccc(C(=O)COC(=O)c2cccc(N3C(=O)c4c(C)nc5ccccc5c4C3=O)c2)cc1C`, the AC50 under setting [1] was 3.55 µM [falling, full curve, poor fit].

As to `COc1cccc(C(=O)Nc2cc(Cl)c(O)c(Cl)c2)c1`, the AC50 under setting [1] is 2 µM [falling, full curve].

Consider `Cc1ccc(-n2c(-c3nn(C)cc3Cl)n[nH]c2=S)cc1`, for which, under setting [1], the AC50 is 16.4 µM [rising, partial curve, poor fit].

Take `COc1ccc(/C=c2\s/c(=C/C(=O)c3ccc(C)cc3)[nH]c2=O)c(OC)c1`: under setting [1], the AC50 is 29.1 µM [rising, single point].

Regarding `Cc1ccccc1NC(=O)CSc1nc(N)c2c3c(sc2n1)CSC(C)(C)C3`, the AC50 under setting [1] is 18.4 µM [falling, single point].

With `COc1ccccc1OCCOC(=O)Nc1ccccc1`, the AC50 under setting [1] is 7.31 µM [falling, partial curve].

For the compound `O=C(CCCc1ccccc1)Nc1ccccc1C(F)(F)F`, the AC50 under setting [1] is 5.62 µM [falling, partial curve, poor fit].

With `COc1ccccc1-n1cnc2cc(NCc3ccccc3O)ccc21`, the AC50 under setting [1] was 20 µM [falling, partial curve, poor fit].

As for `CN(C)CC1CCCCC1OC(=O)/C=C/c1ccc(Cl)cc1Cl` (stereo not given), the AC50 under setting [1] was 35.5 µM [falling, single point].

For the compound `c1ccc2c3c([nH]c2c1)C(C1CCCCC1)N(Cc1ncc[nH]1)CC3` (stereo not given), the AC50 under setting [1] was 8.91 µM [falling, partial curve].

For `Cn1c2ccccc2c2cc(/C=N/NC(=O)c3cc(O)ccc3O)ccc21`, under setting [1], the AC50 is 3.55 µM [falling, full curve].

For `Cn1c(SCC(=O)N2CCCCCC2)nnc1-c1ccco1`, under setting [1], the AC50 is 20 µM [rising, partial curve, poor fit].

Regarding `Cc1ccc(C(=O)NC(C(=O)Nc2ccccc2)c2ccccc2)cc1` (stereo not given), under setting [1], the AC50 is 35.5 µM [rising, single point].

Turning to `CS(=O)(=O)c1nc(-c2cccs2)cc(C(F)(F)F)n1`, the AC50 under setting [1] was 10 µM [falling, partial curve].

`CC(C)(C)c1ccc(S(=O)(=O)Nc2noc3ccccc23)cc1`: under setting [1], the AC50 is 14.1 µM [rising, partial curve, poor fit].

Turning to `CCOC(=O)c1c(COC(=O)c2ccco2)nc2ccccc2[n+]1[O-]`, the AC50 under setting [1] was 1.03 µM [falling, full curve, poor fit].

Consider `O=C(N/N=C/c1c(Cl)[nH]c2ccccc12)c1ccc2c(c1)OCCO2`, for which, under setting [1], the AC50 is 15.8 µM [falling, single point].

`COc1cc(OC)cc(C(=O)N[C@H](C(=O)Nc2nnc(C3CC3)s2)C(C)C)c1`: under setting [1], the AC50 is 0.631 µM [rising, full curve, poor fit].

Consider `C=CCN(c1ccccc1)S(=O)(=O)c1cccc(C(=O)Nc2ncccc2O)c1`, for which the AC50 under setting [1] is 14.6 µM [falling, partial curve, poor fit].

For the compound `NC(=O)CN1CCN(c2nc(-c3ccc(F)cc3)cs2)CC1`, the AC50 under setting [1] was 7.08 µM [rising, partial curve, poor fit].

Turning to `COc1cc(/C=N/NC(=O)c2ccccc2O)ccc1OCC(=O)Nc1ccccc1`, under setting [1], the AC50 is 11.2 µM [falling, partial curve].

Regarding `COc1ccc(/C=C/C(=O)OCc2csc(-c3ccccc3)n2)cc1OC`, the AC50 under setting [1] was 20.6 µM [falling, partial curve, poor fit].

In the case of `CS(=O)(=O)c1ccc(-c2nnc(NC(=O)C3=COCCO3)o2)cc1`, the AC50 under setting [1] is 2.91 µM [falling, partial curve].

Consider `CCOc1ccc2c(c1)sc(N)[n+]2Cc1cc(C)cc2cccnc12`, for which the AC50 was 29.1 µM [rising, single point] under setting [1] and 32.6 µM [falling, partial curve, poor fit] (measured here: IkBa-CBG green luminescence).

Take `CCOC(=O)CNC(=O)CSc1nc2cccnc2n1Cc1ccccc1`: the AC50 under setting [1] is 14.1 µM [falling, partial curve, poor fit].

Source of the values: PubChem BioAssay AID493014 (National Center for Advancing Translational Sciences (NCATS), 2011).
